Measurements taken from PubChem BioAssay AID588590 (National Center for Advancing Translational Sciences (NCATS), 2011).
Out of some 390,000 compounds screened, about 4,000 (1%) were called active. The shares of active, inactive and inconclusive entries below differ from those in the screen. Calls follow the shape of the dose curve; as a rule, active = well fitted inhibition curve with a large enough effect; inconclusive = small, poorly fitted or top-dose-only effect, or another doubt; inactive = no such curve, though single readings can be large or run the other way. A potency beside an inconclusive call is a rough fit, not a confirmed value. Where a structure was tested more than once in an assay, its records may differ in their call.

The chains behind the UniProt entries cited, without tags or fusion partners. Where a name states a change or a piece, a line headed by the entry shows the natural chain unless it says otherwise.
UniProt Q9UNA4: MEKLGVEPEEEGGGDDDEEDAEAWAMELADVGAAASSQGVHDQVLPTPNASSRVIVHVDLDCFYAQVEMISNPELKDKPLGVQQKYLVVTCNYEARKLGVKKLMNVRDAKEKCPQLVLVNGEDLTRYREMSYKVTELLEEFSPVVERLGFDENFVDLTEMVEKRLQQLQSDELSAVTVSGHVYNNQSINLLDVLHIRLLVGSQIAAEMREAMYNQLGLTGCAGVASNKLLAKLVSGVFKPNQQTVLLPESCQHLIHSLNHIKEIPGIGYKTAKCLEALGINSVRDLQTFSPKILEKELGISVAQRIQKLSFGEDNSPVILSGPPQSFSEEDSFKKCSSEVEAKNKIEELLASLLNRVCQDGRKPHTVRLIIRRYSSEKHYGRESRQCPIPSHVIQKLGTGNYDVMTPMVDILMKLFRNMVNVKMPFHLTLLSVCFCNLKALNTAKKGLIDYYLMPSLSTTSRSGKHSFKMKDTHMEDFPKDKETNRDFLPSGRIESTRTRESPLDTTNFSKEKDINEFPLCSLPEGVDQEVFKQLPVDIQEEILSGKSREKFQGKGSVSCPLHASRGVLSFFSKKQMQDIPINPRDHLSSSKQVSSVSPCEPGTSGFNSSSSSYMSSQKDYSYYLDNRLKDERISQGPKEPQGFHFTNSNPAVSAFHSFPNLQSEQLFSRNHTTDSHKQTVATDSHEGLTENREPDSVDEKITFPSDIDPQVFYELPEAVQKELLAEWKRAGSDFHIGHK

The molecules below were run against DNA polymerase iota (Homo sapiens) (UniProt Q9UNA4) (assay: qHTS for Inhibitors of Polymerase Iota). Details: Pol iota fluorescent replication assay, 10 min; series mostly up to 115 µM; activity, negative = inhibition: at the top concentration.
From the text: DNA polymerases, such as Pol iota, are specifically involved in DNA repair. Pol iota specifically plays an important role in translesion synthesis, where the normal high-fidelity DNA polymerases cannot proceed and DNA synthesis stalls. […] Thus, while pol eta's (and most likely iota's) normal function is to protect humans against the deleterious consequences of DNA damage, under certain conditions they can have deleterious effects on human health. As a consequence, we propose to utilize a high throughput replication assay to identify small molecule inhibitors of pol iota.
In a collaboration between the National Institute of Child Health & Human Development (NICHD) and NIH Chemical Genomics Center, a high-throughput, fluorescent screen was developed to screen the NIH Molecular Libraries Small Molecule Repository (MLSMR). This screen is used to identify inhibitors of pol iota.
NIH Chemical Genomics Center [NCGC]
NIH Molecular Libraries Probe Centers Network [MLPCN]
Assay Submitter (PI): Roger Woodgate, NICHD)
Three microliters of reagents (buffer in column 3 and 4 as negative control and 10 nM Pol iota in columns 1, 2, and 5-48) will be dispensed into 1,536-well black solid-bottomed plate. Compounds (23 nL) will be transferred via Kalypsys pin tool equipped with 1536-pin array. The plates will then be incubated for 15 min at room temperature, and 1 µL substrate (50 nM final concentration) will be added to start the reaction and kinetically read twice at 0 min and 10 min on the Viewlux reader.
Potency is read from the fitted curve at half-maximal effect.

Potency, inconclusive:
O=S(N1CCCCC1)C12CC3CC(CC(C3)C1)C2 (stereo not drawn) 100 µM [inhibitor, single point]
Cc1nccc(-c2ccc(-n3cnc4ccccc43)cc2)n1 12.6 µM [inhibitor, single point]
Nc1cc(S(=O)(=O)Nc2cc(Cl)ccc2Cl)ccc1N1CCCC1 63.1 µM [inhibitor, partial curve, poor fit]
CN1C(=S)SC(/[N+]([O-])=C\c2ccccc2F)C1(C)C (stereo not drawn) 22.4 µM [inhibitor, partial curve, poor fit]
COc1ccc(/C=C2/CCC(CN3CCOCC3)C2=O)cc1 (stereo not drawn) 20 µM [inhibitor, full curve]
C#CCOCCOCCOCCNc1nc(N2CCN(C(=O)CCCCCCCCCCNC(=O)Cn3cc(CCCCCN)nn3)CC2)nc(N2CCN(C(=O)CCCCCCCCCCNC(=O)Cn3cc(CCCCCN)nn3)CC2)n1 35.5 µM [inhibitor, single point]
Cc1cc(NC(=O)CSc2ccc(Cl)cc2)no1 31.6 µM [inhibitor, full curve, poor fit]
CCOC(=O)c1cccc(N2C(=O)C3C4C=CC(CC4)C3C2=O)c1 (stereo not drawn) 89.1 µM [inhibitor, single point]
O=C(O)c1ccccc1C(=O)Nc1nc(-c2ccccc2)cs1 89.1 µM [inhibitor, partial curve, poor fit]
COc1cc(/C=N/NC(=O)c2cc(C3CC3)[nH]n2)cc(OC)c1OC 50.1 µM [inhibitor, partial curve]
CCN(CC)C(=O)Cn1cc(S(=O)(=O)CC(=O)Nc2ccc(C(N)=O)cc2)c2ccccc21 89.1 µM [inhibitor, single point]
OC[C@@H]1[C@@H](c2ccccc2)C(c2cccc(Cl)c2)=NN1c1ccccc1 44.7 µM [inhibitor, partial curve]
CC[n+]1c(/C=C2/C=C(C)CC(C)(C)C2)sc2ccc(OC)cc21 22.4 µM [inhibitor, single point]
O=C(NCc1ccco1)c1cccn2c(=O)c3c4c(sc3nc12)CCCC4 14.1 µM [inhibitor, partial curve]
O=C(NCc1cccnc1)c1sc2ccccc2c1Cl 89.1 µM [inhibitor, single point]
CCCc1cc(=O)[nH]c(/N=C(/NC(=O)c2ccccc2)Nc2ccc3c(c2)OCCO3)n1 39.8 µM [inhibitor, single point]
Cc1cc(=O)[nH]c(N/N=C/c2ccc(O)c(O)c2)n1 44.7 µM [inhibitor, partial curve]
N#C/C(=C\c1ccc(Cl)cc1)c1nc2ncccc2[nH]1 12.6 µM [inhibitor, full curve, poor fit]
O=C(O)C1CCCC[C@H]1C(=O)Nc1ncc([N+](=O)[O-])s1 (stereo partly drawn) 20 µM [inhibitor, partial curve, poor fit]
CCCCCCCCNc1ccc(/C=C/c2ccnc3ccccc23)cc1 100 µM [inhibitor, single point]
Cc1ccc(C(=O)O)cc1NC(=S)NC(=O)C(c1ccccc1)c1ccccc1 10 µM [inhibitor, full curve, poor fit]
Cc1ccc(N2CC(C(=O)Nc3nnc(SCCC4OCCO4)s3)CC2=O)cc1C (stereo not drawn) 31.6 µM [inhibitor, single point]
CC1C(=O)OC2C1CCC1(C)CCC(=O)C(C)C21 (stereo not drawn) 56.2 µM [inhibitor, partial curve, poor fit]
CCCCN=C1N/C(=C\c2ccco2)C(=O)N1c1ccccc1 112 µM [inhibitor, partial curve, poor fit]
CCOC(=O)c1ccc(NC(=O)CS(=O)(=O)c2cn(CC)c3ccccc23)cc1 11.2 µM [inhibitor, partial curve, poor fit]
Cc1cccc2cc(C#N)c(SCCN3CCCCC3)nc12 89.1 µM [inhibitor, partial curve, poor fit]
COCCNC(=O)Cn1cc2c(n1)-c1c(oc(C(=O)N3CCCC3)c1C)CC2 28.2 µM [inhibitor, single point]
CCOc1cc(/C=C/c2cc(C(F)(F)F)[nH]c(=O)n2)ccc1O 22.4 µM [inhibitor, single point]

An excerpt from above in order of heavy-atom count, falling.
Potency, inconclusive:
Cc1ccc(N2CC(C(=O)Nc3nnc(SCCC4OCCO4)s3)CC2=O)cc1C (stereo not drawn) 31.6 µM [inhibitor, single point]
O=C(O)C1CCCC[C@H]1C(=O)Nc1ncc([N+](=O)[O-])s1 (stereo partly drawn) 20 µM [inhibitor, partial curve, poor fit]
CC1C(=O)OC2C1CCC1(C)CCC(=O)C(C)C21 (stereo not drawn) 56.2 µM [inhibitor, partial curve, poor fit]

Following part.

Potency, active:
CC(C)(O)c1ccccc1CC[C@@H](SCC1(CC(=O)O)CC1)c1cccc(/C=C/c2ccc3ccc(Cl)cc3n2)c1 44.7 µM
NC(=O)c1ccsc1NC(=O)COC(=O)c1cnccn1 79.4 µM
COc1ccc(C(=O)Nc2cccc(-c3nc4cccnc4s3)c2C)c(OC)c1 79.4 µM
Cc1ccc(/C=C/C(=O)NCc2ccccn2)o1 15.8 µM
O=C(Cc1cc(=O)[nH][nH]1)N/N=C/C(Cl)=C/c1ccccc1 3.16 µM
O=C(NCCc1ccccc1)C1CC(=O)N(C2CCCCCC2)C1 (stereo not drawn) 79.4 µM

activity, negative = inhibition, inactive:
O=C(O)C(=O)/C(=C\c1ccc(Cl)cc1)c1ccc2ccccc2n1 -13.8%
Cc1nc2c(C(=O)NCCC(C)C)cnn2c(C)c1Cc1c(F)cccc1Cl 68.5%
CN1Cc2c(N3CCOCC3)nc(SCCC#N)c(C#N)c2CC1(C)C 79.1%
Cc1cccc(-c2nn(-c3ccccc3)cc2CNCCO)c1 -13.1%
O=C1c2cccc3cccc(c23)N1Cc1cccc(F)c1 -8.78%
COc1cc(-c2cc(C(=O)Nc3ccccc3N3CCOCC3)c3ccccc3n2)cc(OC)c1OC 65.2%
CCCCOC(=O)/C(C#N)=C/c1ccc(-c2ccc(Br)cc2)o1 11.5%
O=C(Cc1ccccc1)c1ccc(O)cc1O 4.85%
C[N+](C)(C)c1ccc(/C=N/Nc2nc(Cl)c(C#N)c(Cl)c2Cl)cc1 21.3%
